Reference: PubChem BioAssay AID504444 (National Center for Advancing Translational Sciences (NCATS), 2011)
The whole screen tested about 360,000 compounds, of which about 7,500 (2.1%) were called active. Inconclusive means that the source gave no clear call. Such entries were picked first, then a sample of the others. The call rests on the fitted dose curve; in most records, active means well fitted inhibition curve with a large enough effect; inconclusive means small, poorly fitted or top-dose-only effect, or effect the other way; inactive means flat fitted curve, though single readings scatter. Where the call is inconclusive, the potency comes from a doubtful curve fit.

experiment: Nrf2 qHTS screen for inhibitors; conditions: A549 ARE-Fluc reporter, luciferase luminescence, 18-24 h; activity change, negative = inhibition: at 46 µM (top of the series); further: nearly all actives have a fitted effect of over 60% in size
How it was run: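 Cells were seeded and rested 2 h, then exposed to compounds for 18-24 h. CellTiter-Fluor was read first as a viability measure. BugLite was added 15 min before the final luminescent read of ARE-luciferase activity in A549 cells.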
On the % scale 0 is the no-effect control and ±100 the full control effect; potency means the concentration at half of the fitted maximal effect.

| SMILES | Potency | activity change, negative = inhibition |
| --- | --- | --- |
| COc1cccc(C(=O)NNC(=O)C(=O)Nc2cccc3ccccc23)c1 | inconclusive: 5.8 µM [falling, partial curve, poor fit] | – |
| O=C(C(Cc1ccccc1)n1cccc1)N1CCN(c2cccc(Cl)c2)CC1 (stereo not given) | inconclusive: 23.1 µM [falling, single point] | – |
| CC(=O)c1ccc(NC(=O)C2(c3ccccc3)CCOCC2)cc1 | inconclusive: 23.1 µM [activator, single point] | – |
| CC(=O)n1cc(/C=N/NC(=O)c2ccc([N+](=O)[O-])cc2)c2ccccc21 | inconclusive: 6.51 µM [activator, single point] | – |
| COc1ccc(CCNC(=O)CCn2c(=O)c3ccccc3n(Cc3ccccc3F)c2=O)cc1OC | inconclusive: 13 µM [falling, partial curve] | – |
| CCCC(C(=O)NC1CCCC1)N(C(=O)c1snc(C(N)=O)c1N)c1ccc(F)cc1 (stereo not given) | inconclusive: 6.51 µM [falling, partial curve, poor fit] | – |
| CN(C)Cc1c(C(=O)N/N=C/c2ccc(OCc3c(F)cccc3Cl)cc2)nnn1-c1nonc1N | inconclusive: 32.6 µM [falling, partial curve, poor fit] | – |
| O=C(Nc1ccc2c(c1)OCCO2)NC12CC3CC(CC(C3)C1)C2 | inconclusive: 1.16 µM [activator, full curve] | – |
| Cc1ccc(NC2=C/C(=N\S(=O)(=O)c3cccs3)c3ccccc3C2=O)c(C)c1 | inconclusive: 29.1 µM [falling, single point] | – |
| O=c1cc(-c2ccc(O)cc2)oc2cc(O)cc(O)c12 | inconclusive: 0.461 µM [falling, full curve, poor fit] | – |
| Cc1cccc(C(=O)OCc2cc(=O)n3ccsc3n2)c1 | inconclusive: 10.3 µM [activator, partial curve] | – |
| COc1ccc(S(=O)(=O)Cc2ccc(C(=O)NC3CCCCCC3)o2)cc1 | inconclusive: 29.1 µM [falling, single point] | – |
| CCc1ccc(N2CC(C(=O)Nc3ccc(S(=O)(=O)N4CCCCC4)cc3)CC2=O)cc1 (stereo not given) | inconclusive: 29.1 µM [falling, single point] | – |
| O=C(Nn1c(SCc2cccc([N+](=O)[O-])c2)nc2ccccc2c1=O)c1ccccc1 | inconclusive: 2.06 µM [activator, full curve, poor fit] | – |
| CC(=O)COc1cc2c(-c3cc4ccccc4o3)cc(=O)oc2cc1C | inconclusive: 16.4 µM [activator, partial curve, poor fit] | – |
| O=C(NCCc1cccs1)C1CC(c2ccccc2[N+](=O)[O-])=NO1 (stereo not given) | inconclusive: 4.61 µM [activator, full curve] | – |
| CC1CCN(c2nn3c(=O)c(C(=O)NCCCOC(C)C)cnc3s2)CC1 | inconclusive: 13 µM [activator, partial curve, poor fit] | – |
| O=C1NC(=O)C2(CCCCCC2)N1 | inconclusive: 29.1 µM [activator, single point] | – |
| O=C(CSc1cn(Cc2ccccc2)c2ccccc12)Nc1nccs1 | inconclusive: 2.31 µM [activator, full curve, poor fit] | – |
| CC(=O)Nc1ccc(C(=O)OCC(=O)N(c2ccccc2)C2CCS(=O)(=O)C2)cc1 (stereo not given) | inconclusive: 32.6 µM [falling, single point] | – |
| CC(=O)c1ccc(N2CCN(C(=O)c3cc4c(-c5ccccc5F)nn(C)c4s3)CC2)cc1 | inconclusive: 23.1 µM [falling, partial curve, poor fit] | – |
| O=C(c1cc2nc(-c3ccccc3)cc(-c3ccccc3)n2n1)N1CCN(C(=O)c2ccco2)CC1 | active: 23.1 µM | – |

| SMILES | Potency | activity change, negative = inhibition |
| --- | --- | --- |
| CC(C)c1ccc(NC(=O)C2CCN(C(=O)c3ccc(F)cc3)CC2)cc1 | – | inactive: -29.1% |
| Cc1nn(-c2ccc(F)cc2)c(C)c1CN1CCN(CCc2ccccc2)C(CCO)C1 (stereo not given) | – | inactive: 0.346% |
| O=C(O)c1cc(/C=C/c2ccc(N3CCOCC3)c([N+](=O)[O-])c2)nc2ccccc12 | inconclusive: 18.4 µM [falling, single point] | – |
| CCN(Cc1ccccc1)C(=O)c1ccc(NC(=O)c2ccc(OC)cc2)cc1 | active: 23.1 µM | – |
| Cc1nc2ccccc2cc1OCc1ccc(Cl)cc1 | inconclusive: 6.51 µM [falling, partial curve] | – |
| CCCc1cc(C(=O)Nc2ccc(F)cc2F)no1 | inconclusive: 18.4 µM [activator, single point] | – |
| COC(=O)c1ccc(NC(=O)CCN2CCN(CCC(=O)Nc3ccc(C(=O)OC)cc3)CC2)cc1 | inconclusive: 10.3 µM [falling, partial curve] | – |
| COc1cc2c(cc1NC(=S)NC(=O)/C=C/c1ccco1)oc1ccccc12 | inconclusive: 29.1 µM [falling, single point] | – |
| Clc1ccccc1C1=Nn2c(nnc2-c2ccncc2)SC1 | inconclusive: 5.17 µM [falling, partial curve, poor fit] | – |
| O=S(=O)(NCC(c1ccc2c(c1)OCO2)N1CCOCC1)c1ccc(Br)cc1 (stereo not given) | – | inactive: 7.51% |
| Cc1ccccc1N1C(=O)C(Cc2ccc(F)cc2)S/C1=C(\C#N)C(N)=O (stereo not given) | inconclusive: 6.51 µM [activator, single point] | – |
| CCN(CC)CCn1c(-c2ccccc2)nc(=S)c2c1CC(C)(C)OC2 | inconclusive: 2.06 µM [activator, partial curve, poor fit] | – |
| COc1ccc(-c2nn3c(C4CCCCC4)nnc3s2)cc1OC | inconclusive: 11.6 µM [falling, partial curve, poor fit] | – |
| CC(=O)Nc1ccc(NC(=O)COc2c(C)cc(Br)cc2C)cc1 | inconclusive: 0.13 µM [falling, full curve, poor fit] | – |
| COc1ccc(C(=O)C[n+]2cccc3cc(C)ccc32)cc1 | inconclusive: 25.9 µM [falling, single point] | – |
| CC(C)(C)C1CCc2c(sc(NC(=O)c3cc4ccccc4c(=O)o3)c2C(N)=O)C1 (stereo not given) | – | inactive: 21.7% |
| O=C(Nc1nc(-c2ccc(Cl)cc2)cs1)C1=COCCO1 | inconclusive: 25.9 µM [falling, single point] | – |
| N=c1ncn(Cc2ccccc2)c2nc(SCCOc3ccccc3)[nH]c12 | – | inactive: 2.48% |
| Cc1nn(Cc2cccc(F)c2)c(C)c1NC(=O)c1ccc(COc2ccccc2Cl)cc1 | active: 10.3 µM | – |
| c1ccc(Cn2c3ccccc3c3nnc(SCCN4CCCCC4)nc32)cc1 | inconclusive: 16.4 µM [activator, partial curve] | – |
| O=C(CCN1C(=O)/C(=C/c2ccc(F)cc2)SC1=S)NCCc1cnc[nH]1 | inconclusive: 2.06 µM [activator, full curve] | – |
| Cc1ccc(S(=O)(=O)N(C)C)cc1NC(=O)COC(=O)CCNS(=O)(=O)c1ccccc1 | – | inactive: 1.01% |

| SMILES | Potency | activity change, negative = inhibition |
| --- | --- | --- |
| COc1ccc(C2=NN(C(=O)CSc3nc(=O)n4cccc(C)c4n3)C(c3ccc(C)cc3)C2)cc1 (stereo not given) | inconclusive: 16.4 µM [falling, partial curve] | – |
| Cc1ccc(C)c(NC(=O)Cn2c(=O)n(CCC(C)C)c(=O)c3cccnc32)c1 | – | inactive: 15% |
| NC(=O)CC(NC(=O)c1ccc(Br)cc1)c1ccc(NC2CCCCCC2)c([N+](=O)[O-])c1 (stereo not given) | inconclusive: 16.4 µM [falling, single point] | – |
| O=C(COC(=O)CNS(=O)(=O)c1ccccc1)Nc1ncc(Cl)cc1Cl | – | inactive: 5.7% |
| COc1ccccc1NC(=O)Cn1cc(S(=O)(=O)Cc2ccccc2)c2ccccc21 | – | inactive: -18% |
| CC1(C(=O)OCC(=O)Nc2cc(S(=O)(=O)N3CCOCC3)ccc2Cl)CC1(Cl)Cl (stereo not given) | inconclusive: 18.4 µM [falling, partial curve, poor fit] | – |
| O=C1c2ccccc2C(=O)N1CC(O)Cn1nnc2ccccc21 (stereo not given) | – | inactive: 23% |
| Cc1ccc(O)c(-c2cc(-c3ccccc3F)[nH]n2)c1 | inconclusive: 23.1 µM [activator, partial curve] | – |
| Cc1cccc(COc2ccc(/C=N/NC(=O)c3nnn(-c4nonc4N)c3COc3ccc(F)cc3)cc2)c1 | inconclusive: 29.1 µM [falling, single point] | – |
| O=C(NCC1OCCc2ccccc21)c1ccc(NC(=O)c2ccc(Cl)cc2Cl)cc1 (stereo not given) | – | inactive: -26.7% |
| COCCCNC(=O)COc1ccc2oc3c(c2c1)CCCC3 | inconclusive: 23.1 µM [falling, partial curve] | – |
| CC(=O)N(C)c1ccc(OCC(O)Cn2c(C)nc3ccccc32)cc1 (stereo not given) | active: 9.2 µM | – |
| O=C1Oc2ccccc2C(=O)/C1=C\N1CCN(c2ccccc2)CC1 | inconclusive: 23.1 µM [falling, single point] | – |
| Nc1c2c(nn1-c1ccccc1)CCC2 | inconclusive: 23.1 µM [activator, partial curve] | – |
| Cc1scc(C(=O)N2CCN(c3ccc(Cl)cc3)CC2)c1C | inconclusive: 20.6 µM [falling, partial curve, poor fit] | – |
| CC(C)n1c(=O)c2c(O)cc(=O)oc2c2ccccc21 | – | inactive: 19.7% |
| CC(=O)Nc1ccc(C(=O)OCC(=O)N2CCCC2=O)cc1 | inconclusive: 18.4 µM [activator, partial curve] | – |
| CN1C(=O)c2ccc(C(=O)NC3CCCCC3)cc2C1=O | inconclusive: 29.1 µM [activator, single point] | – |
| COc1ccc(NC(=O)c2ccc(-n3cccn3)c([N+](=O)[O-])c2)cc1 | inconclusive: 20.6 µM [falling, partial curve, poor fit] | – |
| COc1ccc(C2(OC)Oc3cc(OC)ccc3C(=O)C2(O)OC)cc1 (stereo not given) | – | inactive: 5.74% |
| Cc1c(C)c2ccc(OCC(=O)Nc3ccccn3)cc2oc1=O | inconclusive: 0.146 µM [activator, full curve, poor fit] | – |

Some of these compounds in order of count of non-hydrogen atoms, largest number first:

| SMILES | Potency | activity change, negative = inhibition |
| --- | --- | --- |
| COc1ccccc1NC(=O)Cn1cc(S(=O)(=O)Cc2ccccc2)c2ccccc21 | – | inactive: -18% |
| O=C(CSc1cn(Cc2ccccc2)c2ccccc12)Nc1nccs1 | inconclusive: 2.31 µM [activator, full curve, poor fit] | – |
| Cc1ccc(O)c(-c2cc(-c3ccccc3F)[nH]n2)c1 | inconclusive: 23.1 µM [activator, partial curve] | – |
